In PMC11403291:
No constants are given. Whether binding was seen depends on the method and setting. In cells and extracts the contact can be indirect. These calls come from enrichment with a bait or labelling near it, and not all partners need be listed.

By UniProt entry, the sequences of proteins in these tests, tags left out.
UniProt P09874: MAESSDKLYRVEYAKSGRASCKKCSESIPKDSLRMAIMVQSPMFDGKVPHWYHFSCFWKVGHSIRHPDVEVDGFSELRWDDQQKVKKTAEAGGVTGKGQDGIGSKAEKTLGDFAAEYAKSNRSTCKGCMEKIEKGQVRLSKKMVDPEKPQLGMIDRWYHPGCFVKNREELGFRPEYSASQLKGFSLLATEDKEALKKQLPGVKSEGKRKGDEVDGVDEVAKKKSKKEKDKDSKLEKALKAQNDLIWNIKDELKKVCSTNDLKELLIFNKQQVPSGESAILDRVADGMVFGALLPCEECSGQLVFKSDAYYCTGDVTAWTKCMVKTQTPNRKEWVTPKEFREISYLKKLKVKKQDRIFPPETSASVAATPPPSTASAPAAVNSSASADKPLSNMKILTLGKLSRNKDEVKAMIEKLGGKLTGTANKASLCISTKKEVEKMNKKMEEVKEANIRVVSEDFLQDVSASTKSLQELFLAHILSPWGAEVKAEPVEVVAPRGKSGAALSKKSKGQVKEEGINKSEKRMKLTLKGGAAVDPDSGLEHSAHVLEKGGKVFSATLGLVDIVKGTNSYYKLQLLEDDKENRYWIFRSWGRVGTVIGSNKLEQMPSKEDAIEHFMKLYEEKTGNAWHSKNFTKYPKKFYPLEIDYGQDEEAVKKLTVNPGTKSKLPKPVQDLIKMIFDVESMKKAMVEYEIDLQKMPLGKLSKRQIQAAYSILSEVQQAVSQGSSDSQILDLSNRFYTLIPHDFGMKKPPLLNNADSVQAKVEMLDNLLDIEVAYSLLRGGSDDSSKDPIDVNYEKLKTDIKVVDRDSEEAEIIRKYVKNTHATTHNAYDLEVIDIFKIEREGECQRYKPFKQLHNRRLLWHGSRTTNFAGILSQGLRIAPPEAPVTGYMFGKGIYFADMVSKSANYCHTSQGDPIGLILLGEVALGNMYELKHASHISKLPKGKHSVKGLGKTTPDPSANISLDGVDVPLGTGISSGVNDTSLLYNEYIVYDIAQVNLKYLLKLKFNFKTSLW
UniProt O95271: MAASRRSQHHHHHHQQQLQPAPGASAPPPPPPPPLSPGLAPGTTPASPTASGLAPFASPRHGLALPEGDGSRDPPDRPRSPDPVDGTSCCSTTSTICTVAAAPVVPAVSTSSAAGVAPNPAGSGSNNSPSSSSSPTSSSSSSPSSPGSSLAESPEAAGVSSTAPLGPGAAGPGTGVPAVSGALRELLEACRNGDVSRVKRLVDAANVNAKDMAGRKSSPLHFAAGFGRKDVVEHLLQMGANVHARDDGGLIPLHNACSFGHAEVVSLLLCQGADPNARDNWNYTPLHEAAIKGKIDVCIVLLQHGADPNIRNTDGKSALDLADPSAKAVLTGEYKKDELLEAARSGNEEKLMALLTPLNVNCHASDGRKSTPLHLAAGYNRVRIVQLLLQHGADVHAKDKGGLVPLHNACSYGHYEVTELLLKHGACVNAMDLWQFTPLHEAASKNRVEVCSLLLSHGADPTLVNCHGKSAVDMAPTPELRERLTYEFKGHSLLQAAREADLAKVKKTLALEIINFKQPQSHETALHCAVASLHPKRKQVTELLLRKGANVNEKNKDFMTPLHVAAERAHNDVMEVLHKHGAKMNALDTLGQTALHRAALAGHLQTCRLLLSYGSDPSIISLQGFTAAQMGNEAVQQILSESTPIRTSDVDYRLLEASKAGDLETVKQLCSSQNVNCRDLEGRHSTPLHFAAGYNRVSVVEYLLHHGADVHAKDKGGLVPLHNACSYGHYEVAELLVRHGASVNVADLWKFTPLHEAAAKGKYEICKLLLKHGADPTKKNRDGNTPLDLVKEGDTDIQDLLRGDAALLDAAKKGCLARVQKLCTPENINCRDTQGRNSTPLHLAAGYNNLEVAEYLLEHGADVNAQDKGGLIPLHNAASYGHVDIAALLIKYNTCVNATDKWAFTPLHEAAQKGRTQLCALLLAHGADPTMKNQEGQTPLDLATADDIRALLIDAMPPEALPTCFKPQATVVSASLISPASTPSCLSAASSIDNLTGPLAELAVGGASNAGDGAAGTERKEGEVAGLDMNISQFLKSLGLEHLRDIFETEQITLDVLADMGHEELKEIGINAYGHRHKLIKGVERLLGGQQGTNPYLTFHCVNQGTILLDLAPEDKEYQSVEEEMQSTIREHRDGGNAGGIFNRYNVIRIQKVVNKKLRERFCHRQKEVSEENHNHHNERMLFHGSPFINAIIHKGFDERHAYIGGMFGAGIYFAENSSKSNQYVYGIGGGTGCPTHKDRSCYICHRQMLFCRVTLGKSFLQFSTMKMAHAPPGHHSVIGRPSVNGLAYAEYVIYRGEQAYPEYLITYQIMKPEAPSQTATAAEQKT

B1: DNA ligase 3 (LIG3) (enzyme, UniProt P49916 43-1009)
chain: LLHGHPLFLRRKPVLSFQGSHLRSRATYLVFLPGLHVGLCSGPCEMAEQRFCVDYAKRGTAGCKKCKEKIVKGVCRIGKVVPNPFSESGGDMKEWYHIKCMFEKLERARATTKKIEDLTELEGWEELEDNEKEQITQHIADLSSKAAGTPKKKAVVQAKLTTTGQVTSPVKGASFVTSTNPRKFSGFSAKPNNSGEAPSSPTPKRSLSSSKCDPRHKDCLLREFRKLCAMVADNPSYNTKTQIIQDFLRKGSAGDGFHGDVYLTVKLLLPGVIKTVYNLNDKQIVKLFSRIFNCNPDDMARDLEQGDVSETIRVFFEQSKSFPPAAKSLLTIQEVDEFLLRLSKLTKEDEQQQALQDIASRCTANDLKCIIRLIKHDLKMNSGAKHVLDALDPNAYEAFKASRNLQDVVERVLHNAQEVEKEPGQRRALSVQASLMTPVQPMLAEACKSVEYAMKKCPNGMFSEIKYDGERVQVHKNGDHFSYFSRSLKPVLPHKVAHFKDYIPQAFPGGHSMILDSEVLLIDNKTGKPLPFGTLGVHKKAAFQDANVCLFVFDCIYFNDVSLMDRPLCERRKFLHDNMVEIPNRIMFSEMKRVTKALDLADMITRVIQEGLEGLVLKDVKGTYEPGKRHWLKVKKDYLNEGAMADTADLVVLGAFYGQGSKGGMMSIFLMGCYDPGSQKWCTVTKCAGGHDDATLARLQNELDMVKISKDPSKIPSWLKVNKIYYPDFIVPDPKKAAVWEITGAEFSKSEAHTADGISIRFPRCTRIRDDKDWKSATNLPQLKELYQLSKEKADFTVVAGDEGSSTTGGSSEENKGPSGSAVSRKAPSKPSASTKKAEGKLSNSNSKDGNMQTAKPSAMKVGEKLATKSSPVKVGEKRKAADETLCQTKVLLDIFTGVRLYLPPSTPDFSRLRRYFVAFDGDLVQEFDMTSATHVLGSRDKNPAAQQVSPEWIWACIRKRRLVAPC
B2: GDP-mannose 4,6-dehydratase (enzyme, UniProt O60547 1-372)
chain: MAHAPARCPSARGSGDGEMGKPRNVALITGITGQDGSYLAEFLLEKGYEVHGIVRRSSSFNTGRIEHLYKNPQAHIEGNMKLHYGDLTDSTCLVKIINEVKPTEIYNLGAQSHVKISFDLAEYTADVDGVGTLRLLDAVKTCGLINSVKFYQASTSELYGKVQEIPQKETTPFYPRSPYGAAKLYAYWIVVNFREAYNLFAVNGILFNHESPRRGANFVTRKISRSVAKIYLGQLECFSLGNLDAKRDWGHAKDYVEAMWLMLQNDEPEDFVIATGEVHSVREFVEKSFLHIGKTIVWEGKNENEVGRCKETGKVHVTVDLKYYRPTEVDFLQGDCTKAKQKLNWKPRVAFDELVREMVHADVELMRTNPNA

Columns and labels:
Test in all cases: affinity purification with mass spectrometry
[1] = target: PARP1 (human (endogenous in HEK293, K-562, placenta, HepG2 Princen)) (UniProt P09874)
[2] = target: tankyrase TNKS (human (endogenous in HEK293, K-562, placenta, HepG2 Princen)) (UniProt O95271)
[3] = target: T1, tankyrase TNKS2 (human (endogenous in HEK293, K-562, placenta, HepG2 Princen)) (UniProt Q9H2K2)
T1 sequence: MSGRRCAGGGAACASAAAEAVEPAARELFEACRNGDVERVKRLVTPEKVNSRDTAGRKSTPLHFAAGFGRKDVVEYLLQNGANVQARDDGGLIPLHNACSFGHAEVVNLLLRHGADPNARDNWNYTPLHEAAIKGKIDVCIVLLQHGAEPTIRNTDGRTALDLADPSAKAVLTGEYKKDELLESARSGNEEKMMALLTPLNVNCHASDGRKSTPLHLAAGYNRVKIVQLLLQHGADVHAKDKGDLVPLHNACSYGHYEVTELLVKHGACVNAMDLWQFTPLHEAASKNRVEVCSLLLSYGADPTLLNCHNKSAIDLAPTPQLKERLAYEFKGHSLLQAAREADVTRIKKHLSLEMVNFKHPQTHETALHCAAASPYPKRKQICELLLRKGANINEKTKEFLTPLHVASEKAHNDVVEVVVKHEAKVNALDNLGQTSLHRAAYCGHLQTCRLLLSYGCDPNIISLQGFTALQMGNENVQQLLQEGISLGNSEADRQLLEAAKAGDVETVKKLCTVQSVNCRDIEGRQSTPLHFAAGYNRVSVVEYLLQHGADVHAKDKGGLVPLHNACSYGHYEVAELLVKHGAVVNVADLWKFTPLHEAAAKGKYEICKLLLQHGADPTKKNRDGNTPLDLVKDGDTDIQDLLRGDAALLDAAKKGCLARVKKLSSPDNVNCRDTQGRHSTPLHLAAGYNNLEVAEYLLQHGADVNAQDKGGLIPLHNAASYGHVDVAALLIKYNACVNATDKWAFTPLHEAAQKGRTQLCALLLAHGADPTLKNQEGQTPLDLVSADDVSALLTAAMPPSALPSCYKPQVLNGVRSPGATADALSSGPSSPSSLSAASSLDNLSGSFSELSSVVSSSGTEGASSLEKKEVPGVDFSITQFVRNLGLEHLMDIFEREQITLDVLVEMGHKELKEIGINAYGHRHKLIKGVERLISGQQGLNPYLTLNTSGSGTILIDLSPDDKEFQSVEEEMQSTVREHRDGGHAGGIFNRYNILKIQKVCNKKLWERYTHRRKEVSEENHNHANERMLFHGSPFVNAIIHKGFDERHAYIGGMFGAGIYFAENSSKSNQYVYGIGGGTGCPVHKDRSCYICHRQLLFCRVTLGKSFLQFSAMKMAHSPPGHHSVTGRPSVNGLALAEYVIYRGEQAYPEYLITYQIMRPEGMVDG

Binder | binding [1] | binding [2] | binding [3]
B1 | binds |  | 
B2 |  | binds | binds
